In publication PMC12049546 one finds binding data, which are given here for four substances.

Chains of the proteins cited; added tags and fusions are not shown. Residues count along the entry.
UniProt Q9D7S9: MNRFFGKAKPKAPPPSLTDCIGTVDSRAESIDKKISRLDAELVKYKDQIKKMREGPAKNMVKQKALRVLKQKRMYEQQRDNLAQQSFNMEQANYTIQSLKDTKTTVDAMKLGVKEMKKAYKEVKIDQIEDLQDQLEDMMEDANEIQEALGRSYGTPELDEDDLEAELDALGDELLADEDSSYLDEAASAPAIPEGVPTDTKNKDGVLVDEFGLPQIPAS
UniProt Q09472: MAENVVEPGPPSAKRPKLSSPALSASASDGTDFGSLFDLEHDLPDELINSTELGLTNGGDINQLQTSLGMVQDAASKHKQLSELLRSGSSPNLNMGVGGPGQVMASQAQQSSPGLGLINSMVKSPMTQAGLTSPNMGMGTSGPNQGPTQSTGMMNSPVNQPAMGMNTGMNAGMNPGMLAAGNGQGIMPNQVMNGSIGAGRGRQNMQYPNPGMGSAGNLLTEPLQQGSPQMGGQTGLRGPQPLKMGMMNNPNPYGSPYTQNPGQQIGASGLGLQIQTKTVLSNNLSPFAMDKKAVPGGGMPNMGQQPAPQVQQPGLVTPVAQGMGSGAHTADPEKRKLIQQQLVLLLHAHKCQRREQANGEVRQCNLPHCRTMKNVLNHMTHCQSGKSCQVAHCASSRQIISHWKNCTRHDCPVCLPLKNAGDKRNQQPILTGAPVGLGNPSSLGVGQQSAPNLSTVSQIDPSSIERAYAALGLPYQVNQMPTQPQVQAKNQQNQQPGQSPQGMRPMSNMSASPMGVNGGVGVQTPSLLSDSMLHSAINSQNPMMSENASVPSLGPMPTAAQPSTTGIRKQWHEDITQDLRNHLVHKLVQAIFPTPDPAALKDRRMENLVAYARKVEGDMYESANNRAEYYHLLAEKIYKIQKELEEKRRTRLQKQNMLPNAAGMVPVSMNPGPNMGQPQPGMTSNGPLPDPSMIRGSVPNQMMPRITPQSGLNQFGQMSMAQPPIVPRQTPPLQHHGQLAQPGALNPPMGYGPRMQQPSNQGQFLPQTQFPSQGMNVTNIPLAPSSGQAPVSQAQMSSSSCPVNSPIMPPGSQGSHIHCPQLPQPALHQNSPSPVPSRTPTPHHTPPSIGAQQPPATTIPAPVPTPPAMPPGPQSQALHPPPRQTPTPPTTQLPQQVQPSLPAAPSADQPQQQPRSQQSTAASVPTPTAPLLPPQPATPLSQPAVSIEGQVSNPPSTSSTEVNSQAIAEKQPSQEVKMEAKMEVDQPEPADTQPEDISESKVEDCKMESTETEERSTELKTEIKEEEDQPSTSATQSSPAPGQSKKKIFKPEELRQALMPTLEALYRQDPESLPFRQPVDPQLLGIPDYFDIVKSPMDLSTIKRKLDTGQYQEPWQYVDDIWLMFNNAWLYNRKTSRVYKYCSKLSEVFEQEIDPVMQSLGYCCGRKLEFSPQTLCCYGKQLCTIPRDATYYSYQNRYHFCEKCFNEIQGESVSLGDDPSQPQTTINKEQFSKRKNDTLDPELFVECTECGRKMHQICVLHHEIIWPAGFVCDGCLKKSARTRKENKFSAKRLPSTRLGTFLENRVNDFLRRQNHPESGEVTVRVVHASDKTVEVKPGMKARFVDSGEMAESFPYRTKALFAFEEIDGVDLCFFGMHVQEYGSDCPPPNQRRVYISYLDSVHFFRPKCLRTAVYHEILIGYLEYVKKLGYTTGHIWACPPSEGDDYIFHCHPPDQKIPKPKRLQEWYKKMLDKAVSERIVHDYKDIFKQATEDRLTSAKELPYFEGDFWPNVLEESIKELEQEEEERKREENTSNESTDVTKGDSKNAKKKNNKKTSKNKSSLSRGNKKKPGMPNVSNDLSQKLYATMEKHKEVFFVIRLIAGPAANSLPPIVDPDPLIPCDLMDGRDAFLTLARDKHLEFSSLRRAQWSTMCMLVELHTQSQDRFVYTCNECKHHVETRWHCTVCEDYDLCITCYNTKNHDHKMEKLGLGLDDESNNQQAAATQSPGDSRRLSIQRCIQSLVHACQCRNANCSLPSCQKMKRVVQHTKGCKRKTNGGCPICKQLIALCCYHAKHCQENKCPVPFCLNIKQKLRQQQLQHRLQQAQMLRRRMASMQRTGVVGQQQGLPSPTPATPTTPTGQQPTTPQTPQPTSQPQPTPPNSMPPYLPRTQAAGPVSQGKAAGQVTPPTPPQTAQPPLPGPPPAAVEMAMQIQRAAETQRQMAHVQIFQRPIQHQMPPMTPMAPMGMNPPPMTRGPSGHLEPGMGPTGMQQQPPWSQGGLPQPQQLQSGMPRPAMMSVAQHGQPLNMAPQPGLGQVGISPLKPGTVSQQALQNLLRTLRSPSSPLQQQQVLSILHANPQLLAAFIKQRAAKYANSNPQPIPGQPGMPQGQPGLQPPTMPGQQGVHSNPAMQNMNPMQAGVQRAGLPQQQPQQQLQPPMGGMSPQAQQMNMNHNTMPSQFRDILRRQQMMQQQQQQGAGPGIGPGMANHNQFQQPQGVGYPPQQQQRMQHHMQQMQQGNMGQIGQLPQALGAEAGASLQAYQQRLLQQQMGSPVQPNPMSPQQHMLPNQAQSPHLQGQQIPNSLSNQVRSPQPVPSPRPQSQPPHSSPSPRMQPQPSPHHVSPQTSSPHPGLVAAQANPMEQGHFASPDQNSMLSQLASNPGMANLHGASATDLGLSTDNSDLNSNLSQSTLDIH
UniProt P01106: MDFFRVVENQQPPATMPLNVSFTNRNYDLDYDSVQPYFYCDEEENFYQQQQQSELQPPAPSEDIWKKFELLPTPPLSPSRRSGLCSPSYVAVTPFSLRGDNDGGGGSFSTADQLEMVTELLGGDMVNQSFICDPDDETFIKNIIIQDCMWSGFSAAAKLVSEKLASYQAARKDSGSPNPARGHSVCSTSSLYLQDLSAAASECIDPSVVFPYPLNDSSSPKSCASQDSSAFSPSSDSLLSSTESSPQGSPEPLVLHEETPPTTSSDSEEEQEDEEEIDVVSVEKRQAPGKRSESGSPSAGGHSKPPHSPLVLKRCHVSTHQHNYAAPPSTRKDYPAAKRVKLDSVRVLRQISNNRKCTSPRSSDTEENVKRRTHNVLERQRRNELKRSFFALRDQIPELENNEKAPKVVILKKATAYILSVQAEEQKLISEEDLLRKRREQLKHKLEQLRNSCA
UniProt P46531, residues 1754-2555: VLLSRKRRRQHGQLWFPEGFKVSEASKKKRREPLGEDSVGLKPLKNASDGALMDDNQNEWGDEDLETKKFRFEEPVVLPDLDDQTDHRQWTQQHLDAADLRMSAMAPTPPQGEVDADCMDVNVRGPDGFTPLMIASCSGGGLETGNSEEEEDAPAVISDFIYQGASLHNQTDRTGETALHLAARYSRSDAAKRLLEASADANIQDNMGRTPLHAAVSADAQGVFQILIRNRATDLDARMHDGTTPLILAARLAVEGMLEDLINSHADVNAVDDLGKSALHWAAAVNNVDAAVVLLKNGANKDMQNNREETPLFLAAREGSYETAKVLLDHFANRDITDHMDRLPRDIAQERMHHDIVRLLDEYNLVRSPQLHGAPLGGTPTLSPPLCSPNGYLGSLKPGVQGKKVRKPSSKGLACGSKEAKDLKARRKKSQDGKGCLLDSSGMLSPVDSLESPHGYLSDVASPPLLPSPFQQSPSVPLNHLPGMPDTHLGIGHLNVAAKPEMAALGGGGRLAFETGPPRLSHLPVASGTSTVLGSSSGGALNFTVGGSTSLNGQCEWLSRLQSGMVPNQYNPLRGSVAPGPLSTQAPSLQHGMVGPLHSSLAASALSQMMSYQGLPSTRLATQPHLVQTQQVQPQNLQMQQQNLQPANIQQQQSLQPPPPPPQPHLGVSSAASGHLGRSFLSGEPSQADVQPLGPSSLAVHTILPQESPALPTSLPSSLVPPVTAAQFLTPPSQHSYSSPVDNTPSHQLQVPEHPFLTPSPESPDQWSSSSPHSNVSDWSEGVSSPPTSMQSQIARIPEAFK
UniProt Q9NZZ3: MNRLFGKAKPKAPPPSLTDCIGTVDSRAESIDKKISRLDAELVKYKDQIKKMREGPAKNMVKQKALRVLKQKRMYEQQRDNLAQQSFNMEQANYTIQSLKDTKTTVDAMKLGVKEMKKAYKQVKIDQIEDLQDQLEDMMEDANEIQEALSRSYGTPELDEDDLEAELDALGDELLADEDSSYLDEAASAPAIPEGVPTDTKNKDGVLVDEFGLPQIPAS

Results are given in words; binding and its absence hold for the method and conditions named. For some of these results: Binding seen in cells or lysates may run through a third protein. Some results given as binding are weak or reduced against the parent protein; the word gives no strength.

The target of test [1] is hemagglutinin (HA)-tagged CHMP5 (mouse) (UniProt Q9D7S9). As to the kind of experiment: co-IP; anti-HA immunoprecipitation (isotype IgG as control) from fractionated/nuclear lysates of CUTLL1 cells transduced with HA-tagged CHMP5; Protein G Dynabeads, antibody overnight at 4 °C; western blot. Background: Immunoblotting shows a protein as a band on a membrane.
The target in the next test is recombinant p300-FLAG (UniProt Q09472). As to the kind of experiment: co-IP; cell-free: recombinant proteins, 0.5 μg each, mixed 1:1 in TBS (50 mM Tris-HCl, 150 mM NaCl) with protease inhibitors, overnight at 4 °C; anti-FLAG antibody 4 h, Protein G Dynabeads 2 h; washed with TBS + 0.2% NP-40; both purified.

For MYC (from UniProt P01106 1-454), in test [1], the binding result is reported as “no binding”.
In the case of “intracellular NOTCH1 domain (ICN1) (from UniProt P46531 1754-2555) (domain or fragment)”, in test [1], the binding entry was “no binding”.
For the substance “p300 (endogenous, CUTLL1) (from UniProt Q09472 1-2414) (enzyme)”, the binding entry in test [1] was “binds”.
Take “recombinant CHMP5-His (from UniProt Q9NZZ3 1-219)”: the binding result in the test with recombinant p300-FLAG is recorded as “binds”.
